# Reference: the supplement of paper PMC3334620
# Over roughly 33,000 sequences, “E-score (-0.5 to 0.5)” has its median near -0.0034; the highest 2% begin near 0.25. This is one part of the list.
# Target: T1, Yap3 (UniProt P38749)
# T1 sequence: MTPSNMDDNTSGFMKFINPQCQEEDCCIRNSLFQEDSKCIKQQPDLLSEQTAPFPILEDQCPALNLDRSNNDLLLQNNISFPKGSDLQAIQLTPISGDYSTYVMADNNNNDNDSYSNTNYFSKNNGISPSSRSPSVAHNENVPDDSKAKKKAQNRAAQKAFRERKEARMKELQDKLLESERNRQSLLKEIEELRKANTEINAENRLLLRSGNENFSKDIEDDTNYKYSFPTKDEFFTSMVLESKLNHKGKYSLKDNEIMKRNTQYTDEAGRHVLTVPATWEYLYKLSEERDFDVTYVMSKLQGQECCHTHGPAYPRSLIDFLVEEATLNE
# Assay: PBM E-score (8-mer binding enrichment) (E-score (-0.5 to 0.5)); higher = stronger / more preferred TF binding
# Settings: protein concentration: 100 nM; construct: GST-full length
# How it was run: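 Yeast transcription factors, full-length or as DNA-binding domains, were expressed with a GST tag using PURExpress in vitro transcription/translation. At about 100-200 nM they were applied to universal all-10-mer Agilent arrays, double-stranded by primer extension on fresh or once-stripped slides. Fluorescent anti-GST detected bound protein, and masliner normalised the scans. E-scores for ungapped eight-base words, pooled with reverse complements, came from the Universal PBM Analysis Suite.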
row,Sequence,PBM E-score
1,CTTATTGA,0.0574
2,CAGGTCGG,-0.138
3,GCAGGAGA,-0.0986
4,ACCACTTA,0.06
5,CAGCCATC,-0.068
6,AGCGGGCG,-0.137
7,ATACTACG,0.0912
8,AACATTAC,0.149
9,CATCAATA,0.111
10,CGAAACCA,0.112
11,ACCGATAT,-0.0197
12,ACGCCGAA,-0.0114
13,CAATAGGA,0.0855
14,CGAACCCG,-0.171
15,ACAAACGC,0.0787
16,AAGCTTAT,0.0886
17,AGATGGGC,-0.0911
18,TAGTAATA,0.204
19,ACTACCAT,0.11
20,ACTAGGGA,-0.133
21,AGATATCT,-0.0346
22,CTCGGTAA,0.053
23,AACAACAC,0.303
24,CCATTCGG,0.0445
25,AAGAGACT,-0.153

row,Sequence,PBM E-score
1,CATATGTA,0.108
2,GTATGTGA,0.0622
3,CGTAAACA,0.14
4,GTCAGGTA,0.00896
5,ATAGAGCA,0.0256
6,ACGCTACG,-0.0867
7,GACGTAGC,-0.222
8,CTGTCCTC,-0.1
9,CTTCATTA,0.242
10,CGAGGTAC,-0.138
11,AAATGGGC,-0.124
12,CTACTTCC,0.0051
13,TAGTGATA,-0.0405
14,ATATTCTA,0.175
15,AGCTGACG,0.00199
16,CGACATGA,-0.107
17,TAGCTTCA,-0.0997
18,GGACCAAC,-0.182
19,TGTATACA,0.164
20,GCAGCCTA,-0.0965
21,GTGCATTA,0.0488
22,ATTTAAGC,0.21
23,CGAATCCA,0.102
24,CTATCCAA,-0.113
25,AATAAGGG,0.204

row,Sequence,PBM E-score
1,AACATCGG,-0.0538
2,TCCCTTCA,-0.0728
3,ACACCCAG,-0.17
4,AGAGAATA,0.208
5,AGTAATTC,0.235
6,AGTCGAGC,-0.206
7,AAACATTG,0.0783
8,CACATCGG,-0.141
9,AGCATCTA,0.0425
10,GGCACCTA,-0.188
11,ATGCTCAG,-0.0117
12,AGCAGAAA,0.152
13,AGAGATGA,-0.0153
14,AGCGCATG,0.0393
15,CATTAGCG,0.12
16,CTCAATAC,0.215
17,GTTCATGA,0.109
18,ACTTTGAC,0.114
19,ATGAAGCA,-0.113
20,TAGTCCCA,-0.0992
21,GATTCCTA,-0.156
22,AACCCAAC,0.0756
23,ACTAGAAA,0.0949
24,TACGAGCA,-0.0231
25,GGAGATGA,0.118

row,Sequence,PBM E-score
1,AAACGAAC,0.132
2,CGCTACCA,-0.15
3,CAACACCA,0.0908
4,GGTGATGA,0.125
5,AACCAGCG,-0.0042
6,AGGGATAC,-0.027
7,GGTCAACA,-0.0162
8,CATTTTGC,0.178
9,CATCAACC,0.203
10,ACAAACAC,0.207
11,CCTTTTCC,-0.0836
12,GTTGCTGA,0.163
13,AGTCGGAT,0.0774
14,CGCTATGA,0.0528
15,ATGCTAGG,0.077
16,CTCGAGAA,0.0481
17,AGTAGTTA,-0.0775
18,GTAAAACA,0.0179
19,GCTGGTAA,-0.0741
20,CGGCATCA,-0.109
21,TATAAAAA,0.265
22,AGAGGTAG,-0.0107
23,AAGTCATT,-0.0794
24,CAATGAGC,-0.0466
25,CGGCGTCC,0.0273

# As entered above.
# CGGCATCA – PBM E-score: -0.109
# GGTCAACA – PBM E-score: -0.0162
# GTAAAACA – PBM E-score: 0.0179
# CAATGAGC – PBM E-score: -0.0466
# ACAAACAC – PBM E-score: 0.207
# CGGCGTCC – PBM E-score: 0.0273
# AAACGAAC – PBM E-score: 0.132

# More records follow:

row,Sequence,PBM E-score
1,AGTCGCCC,-0.121
2,ACCGCTAC,-0.181
3,CGAGCCCA,-0.158
4,TGATCCAA,0.0224
5,AAGTACTA,0.18
6,AATGACGT,0.115
7,ATAGCTAT,-0.106
8,CATCCGCG,0.0202
9,ATTGCGTA,0.251
10,AAGTGGCC,-0.137
11,ACAGCTTA,0.159
12,CTTGAAGA,-0.101
13,CGTAATGA,0.241
14,ATAAGGAT,0.147
15,CGAGGGTA,-0.0867
16,TAATATGA,0.297
17,ACTATACA,0.138
18,ACGTGAGC,-0.0957
19,AGACCGTG,-0.0382
20,ATTCGTGG,0.012
21,CTGCGGGA,-0.235
22,GCCTACAC,-0.00141
23,GCATCACA,-0.0287
24,GTCTTGCA,0.0925
25,AGCTCGCC,-0.173

row,Sequence,PBM E-score
1,AATCTACT,0.124
2,GCATCGAA,-0.153
3,GTCTGACA,-0.0436
4,ACGCGTCA,0.122
5,TAGGACGA,-0.0578
6,CCGACCGC,-0.315
7,ACCCAGGG,-0.374
8,TAACATCA,0.0784
9,GAATCCGC,-0.121
10,TAAACTCA,0.0977
11,CGGCGCCG,0.0469
12,CGAGTCAA,-0.133
13,CGACTACG,-0.0871
14,CTGATACA,0.0245
15,CGCAGATC,-0.125
16,AAACTCAT,0.219
17,AGCCACAC,0.128
18,ATACCGTC,0.197
19,CAATTGTG,0.188
20,AAGTCTCC,-0.0848
21,CATGAGCA,-0.106
22,ATGCATGA,0.167
23,CTAGACTC,-0.305
24,AAGCCTAA,0.00919
25,GCTACCAC,-0.173

row,Sequence,PBM E-score
1,CAGCTGTC,0.148
2,AGGTGCAT,-0.105
3,AACACCGA,-0.0814
4,AAGGGGTA,-0.233
5,CGAAACAG,0.0681
6,TGCGTGAA,0.107
7,AGACATGC,-0.183
8,AACTCTCC,-0.14
9,ATGAAGGA,0.0695
10,CTCTTTGA,-0.0682
11,ACCTCGCG,-0.0922
12,GCCACCCA,-0.179
13,ATCAATTG,0.159
14,ACCTACCG,0.00349
15,CGCTGAAG,-0.0508
16,CCGTTGCA,0.00625
17,CAATTGAA,-0.032
18,GTTATGAA,0.172
19,ACGTGCAG,-0.1
20,CTGGATGC,-0.33
21,AACTCCTT,0.0691
22,GAGTCATC,-0.00184
